No constants are given. Whether binding was seen depends on the method and setting. Binding seen in cells or lysates may run through a third protein. These calls come from enrichment with a bait or labelling near it, and not all partners need be listed.

This assay concerns the target T1, DAB2IP (endogenous, SW48) (human (endogenous in SW48)) (UniProt Q5VWQ8).
T1 sequence: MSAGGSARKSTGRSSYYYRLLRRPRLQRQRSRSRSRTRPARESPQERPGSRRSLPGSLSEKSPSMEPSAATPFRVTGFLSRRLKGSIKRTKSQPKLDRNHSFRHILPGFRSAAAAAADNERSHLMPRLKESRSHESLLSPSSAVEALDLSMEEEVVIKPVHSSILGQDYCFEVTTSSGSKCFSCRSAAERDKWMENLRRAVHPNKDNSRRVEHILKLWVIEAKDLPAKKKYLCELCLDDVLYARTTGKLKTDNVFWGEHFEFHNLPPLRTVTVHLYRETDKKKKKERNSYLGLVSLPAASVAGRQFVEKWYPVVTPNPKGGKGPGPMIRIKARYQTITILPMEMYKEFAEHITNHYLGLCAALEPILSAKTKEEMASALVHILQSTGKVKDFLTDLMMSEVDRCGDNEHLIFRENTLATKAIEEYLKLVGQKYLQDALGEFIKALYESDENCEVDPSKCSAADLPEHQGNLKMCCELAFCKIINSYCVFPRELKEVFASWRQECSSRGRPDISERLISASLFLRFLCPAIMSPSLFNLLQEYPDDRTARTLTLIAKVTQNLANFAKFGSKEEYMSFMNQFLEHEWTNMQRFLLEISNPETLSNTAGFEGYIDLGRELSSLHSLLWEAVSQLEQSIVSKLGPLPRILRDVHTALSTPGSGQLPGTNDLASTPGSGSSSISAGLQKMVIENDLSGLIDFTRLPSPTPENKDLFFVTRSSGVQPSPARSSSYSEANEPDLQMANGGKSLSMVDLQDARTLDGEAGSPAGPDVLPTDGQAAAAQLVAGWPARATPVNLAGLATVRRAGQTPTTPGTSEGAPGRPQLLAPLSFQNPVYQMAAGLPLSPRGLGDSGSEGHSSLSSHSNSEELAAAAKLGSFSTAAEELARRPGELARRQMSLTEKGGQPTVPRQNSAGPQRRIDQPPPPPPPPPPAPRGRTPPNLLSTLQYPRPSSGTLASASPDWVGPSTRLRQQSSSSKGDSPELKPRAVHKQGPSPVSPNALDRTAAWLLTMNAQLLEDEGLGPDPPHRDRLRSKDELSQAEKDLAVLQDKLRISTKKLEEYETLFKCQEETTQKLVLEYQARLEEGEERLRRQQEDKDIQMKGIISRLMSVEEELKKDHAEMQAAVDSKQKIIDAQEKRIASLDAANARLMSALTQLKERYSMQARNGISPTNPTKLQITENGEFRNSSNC
The assay can be described thus: affinity purification with mass spectrometry.

As to “HSP90AA1 (endogenous, SW48) (from UniProt P07900 1-732)”, the binding result is listed as “binds”.

The record behind these values is paper doi:10.1101/2021.06.28.450115.
